Measurements from patent US9182410.
No constants are given. Whether binding was seen depends on the method and setting. Some results given as binding are weak or reduced against the parent protein; the word gives no strength.

Biological target: TNFR2:Fc (human)
Test: Protein A affinity chromatography (MabSelect SuRe resin), capture from cell-free culture supernatant, elution at pH ~3.2

binding: binds
Substance: Protein A (MabSelect SuRe resin, GE Healthcare) (from UniProt P38507 212-269)
